Laboratory results reported in article PMC4737184, “The activity of CouR, a MarR family transcriptional regulator, is modulated through a novel molecular mechanism” (Nucleic Acids Research, 2015).
Construct, isoform or probe ends are uncertain for at least one entry. A negative result means that nothing was seen under these conditions. Tags and fusion partners may be left off the protein sequences shown.

Molecular target: T1, CouR (Rhodococcus jostii RHA1) (UniProt Q0S6D0)
T1 sequence (looked up, limits assumed): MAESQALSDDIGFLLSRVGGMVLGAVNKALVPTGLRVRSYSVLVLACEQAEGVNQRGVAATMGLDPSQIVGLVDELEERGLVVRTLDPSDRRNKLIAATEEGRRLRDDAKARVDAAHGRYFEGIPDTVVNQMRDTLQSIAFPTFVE
Assay: EMSA
Conditions: 200 nM CouR, EMSA: 20 mM HEPES pH 7.6, 10 mM (NH4)2SO4, 30 mM KCl, 1 mM DTT, 1 mM EDTA, 0.2% Tween 20, 100 ug/ml poly[d(I-C)], 1 nM probe, 25 C, 20 min, recombinant protein, label: 3' DIG-11-ddUTP (probe), unlabelled as competitor

CATTGATGATTGAGAATGTCAATGATTAAGG (double strand) [couRp_couNp]
binding result (500 uM feruloyl-CoA): no binding
binding result (500 uM p-coumaroyl-CoA): no binding
